Test results: patent US20260191925A2, “TISSUE OCCLUDING AGENT COMPRISING AN IEIKIEIKIEIKI PEPTIDE” (3-D Matrix, Ltd., priority 2008, published 2026)

Test system: rabbit hepatic incision
Assay: Rabbit hepatic transection model (Example 9)
Assay type: in vivo
Conditions: 1% solution applied on hepatic incision
Description: The rabbits were subcutaneously administered (3 mg/kg) Celactar 2% injection (2.0 g content as xylazine in 100 mL, product of Bayer Ltd.), and then ketamine (50 mg content as ketamine in 1 mL, product of Fuji Chemical Industries, Ltd.) was intravenously administered (10 mg/kg) for anesthesia.
The rabbits were laparotomized by median section and the hepatic left lobes were exposed and sharply transected with a scalpel to about 1 cm to induce hemorrhage.
After confirming exudative hemorrhage from the incision, the blood was removed as much as possible with gauze and the hepatic incision was treated with aqueous peptide solution.
The gelled aqueous peptide solution was removed 1 minute after treatment using physiological saline, and the presence of any hemorrhage from the hepatic incision was visually confirmed.

Substance	gelling on hemorrhage wound surface
1% IEIK9 aqueous peptide solution: 1% aqueous peptide solution, peptide sequence IEIK9 (SEQ ID NO: 4) (IEIKIEIKI; 1% aqueous solution; designed peptide; SITE 1 MOD_RES - …ON)	Absolutely no gelling
Ac-(IEIK)3I-CONH2 [1% IEIK13 aqueous peptide solution]	gelled after applying
Ac-(KLDL)3-CONH2 (KLDLKLDLKLDL; N-acetyl, C-amide; 1% aqueous solution; designed peptide; SITE 1 MOD_RES - …ON; SITE 12 Amidated residue) [1% KLD aqueous peptide solution]	gelled after applying
